From the supplement of paper PMC8426693
This is one part of the list.

System: SARS-CoV-2 5_SL7 RNA
Assay: NMR binding call after quantification (hit when 2 of 3 NMR criteria are met) (binary (1 = binding, 0 = not binding)); higher = binding
Conditions: RNA concentration 10 µM; fragment concentration 200 µM; 293 K

Row | Structure (SMILES) | NMR binding call
1 | COCC(=O)Nc1nnc(C)s1 | 0
2 | CCN(C)C(=O)c1cccc(N)c1 | 0
3 | O=C(COc1ccccc1)Nc1cccc(F)c1 | 0
4 | CN(C)C(=O)OCCn1ccnc1 | 0
5 | COc1ccc(C(=O)NCC(N)=O)cc1 | 0
6 | CC(C)C(N)C(=O)N1CCOCC1 (stereo not given) | 0
7 | CCOC(=O)CN1CCS(=O)(=O)CC1 | 0
8 | CN(C)C(=O)c1ccc(F)cc1Br | 0
9 | Oc1cccc(CN2CCSCC2)c1 | 0
10 | Nc1ccccc1N1CCOCC1 | 0
11 | c1cc(NCC2CCCO2)ccn1 (stereo not given) | 0
12 | CNCc1cccc(OC)n1 | 0
13 | CN1CCC(Oc2cccc(F)c2)C1=O (stereo not given) | 0
14 | CC(=O)N1CCCC(O)(C(=O)O)C1 (stereo not given) | 0
15 | c1coc(CNc2nc3ccccc3[nH]2)c1 | 0
16 | CC1CCCCN1CCN (stereo not given) | 0
17 | CN1CCN(C(=O)C2CCCN2)CC1 (stereo not given) | 0
18 | CNCC(=O)Nc1cc(C)ccn1 | 0
19 | CC(=O)NC(C(=O)O)C1CCOCC1 (stereo not given) | 0
20 | CC1COCCN1Cc1ccccc1F (stereo not given) | 0

Reprinted at random: 2 entries already listed
Row | Structure (SMILES) | NMR binding call
13 | CN1CCC(Oc2cccc(F)c2)C1=O (stereo not given) | 0
19 | CC(=O)NC(C(=O)O)C1CCOCC1 (stereo not given) | 0

Next part.

Row | Structure (SMILES) | NMR binding call
21 | CCNCc1cn(C)nn1 | 0
22 | COc1ccc2sc(N)nc2c1 | 0
23 | CCOc1c(F)cccc1C(=O)N(C)C | 0
24 | CCC(=O)NC1CCNC1 (stereo not given) | 0
25 | Cc1ncsc1C(=O)N1CCCNCC1.Cl.Cl | 0
26 | CC(O)COc1cccc(F)c1 (stereo not given) | 0
27 | OC1CCN(Cc2ccc(Cl)cc2)C1 (stereo not given) | 0
28 | Cc1sc2ncnc(N(C)C)c2c1C | 0
29 | CC(NC(=O)C1CCCC1)C(=O)O (stereo not given) | 0
30 | CC(N)c1ccc(N2CCOCC2)cc1 (stereo not given) | 0
31 | CCC(=O)Nc1cccc(N)c1C | 0
32 | Fc1ccc(Cn2cnc3ccccc32)cc1 | 0
33 | Cc1cc(C)nc(NC(=O)Nc2ccccc2)c1 | 0
34 | CC(=O)Nc1ccccc1CC(=O)O | 0
35 | CN(C1CCCCCC1)S(C)(=O)=O | 0
36 | CC(=O)NC(C)c1nnc2ccccn12 (stereo not given) | 0
37 | C1CC(c2nc(C3CC3)no2)CN1 (stereo not given) | 0
38 | Nc1ccccc1OCc1ccccc1 | 0
39 | Oc1ncc(NC2CCCCC2)c(O)n1 | 0
40 | Cl.Cl.O=C(c1ccncc1)N1CCNCC1 | 0
